The values below come from paper PMC7555701.

No constants are given. Whether binding was seen depends on the method and setting. In cells and extracts the contact can be indirect. Some binding calls cover weakened binding; strength is not graded here.

The target in the assay is T1, TNF receptor-associated factor 2 (TRAF2) (human (endogenous in HCT 116)), Q12933.
T1 chain: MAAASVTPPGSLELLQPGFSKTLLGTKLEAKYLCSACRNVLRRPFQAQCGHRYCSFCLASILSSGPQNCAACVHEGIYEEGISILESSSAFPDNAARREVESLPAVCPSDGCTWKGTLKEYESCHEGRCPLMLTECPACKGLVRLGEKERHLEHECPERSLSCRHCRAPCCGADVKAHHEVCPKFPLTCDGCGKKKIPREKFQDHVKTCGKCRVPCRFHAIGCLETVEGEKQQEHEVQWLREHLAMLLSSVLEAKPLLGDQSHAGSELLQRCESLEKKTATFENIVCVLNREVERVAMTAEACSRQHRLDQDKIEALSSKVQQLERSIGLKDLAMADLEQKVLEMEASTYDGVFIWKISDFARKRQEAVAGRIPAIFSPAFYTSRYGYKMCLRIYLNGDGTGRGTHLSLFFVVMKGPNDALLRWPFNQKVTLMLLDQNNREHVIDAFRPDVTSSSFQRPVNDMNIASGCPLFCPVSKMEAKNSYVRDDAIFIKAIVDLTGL
The assay is described as follows: co-IP; HCT 116 cells untreated or primed with TNF-α (10 ng/mL, 12 h), then treated with 5 uM TAT-FADD for 6 h; endogenous TRAF2 immunoprecipitated from NP-40 lysate, beads washed with RIPA buffer; Western blot for cIAP2 and RIP1. As to conditions: remark: other sources report otherwise. For orientation: A western blot detects proteins with antibodies after separation by electrophoresis.

B1: receptor-interacting protein kinase (RIP1), Q13546 1-671 (enzyme)
chain: MQPDMSLNVIKMKSSDFLESAELDSGGFGKVSLCFHRTQGLMIMKTVYKGPNCIEHNEALLEEAKMMNRLRHSRVVKLLGVIIEEGKYSLVMEYMEKGNLMHVLKAEMSTPLSVKGRIILEIIEGMCYLHGKGVIHKDLKPENILVDNDFHIKIADLGLASFKMWSKLNNEEHNELREVDGTAKKNGGTLYYMAPEHLNDVNAKPTEKSDVYSFAVVLWAIFANKEPYENAICEQQLIMCIKSGNRPDVDDITEYCPREIISLMKLCWEANPEARPTFPGIEEKFRPFYLSQLEESVEEDVKSLKKEYSNENAVVKRMQSLQLDCVAVPSSRSNSATEQPGSLHSSQGLGMGPVEESWFAPSLEHPQEENEPSLQSKLQDEANYHLYGSRMDRQTKQQPRQNVAYNREEERRRRVSHDPFAQQRPYENFQNTEGKGTAYSSAASHGNAVHQPSGLTSQPQVLYQNNGLYSSHGFGTRPLDPGTAGPRVWYRPIPSHMPSLHNIPVPETNYLGNTPTMPFSSLPPTDESIKYTIYNSTGIQIGAYNYMEIGGTSSSLLDSTNTNFKEEPAAKYQAIFDNTTSLTDKHLDPIRENLGKHWKNCARKLGFTQSQIDEIDHDYERDGLKEKVYQMLQKWVMREGIKGATVGKLAQALHQCSRIDLLSSLIYVSQN
Turning to B1, the binding result was “binds”.
